This is one part of the list.
Columns and labels:
Assay in all cases: log2 fold change, soluble protein after heating vs DMSO (PISA); higher = thermal stabilisation; K562 lysate, 10 uM; active = over 0.2 and 3.5 SD of the protein, either way, in both replicates (recomputed)
[1] = compound: CS(=O)(=O)CCNCc1ccc(-c2ccc3ncnc(Nc4ccc(OCc5cccc(F)c5)c(Cl)c4)c3c2)o1 [lapatinib]
Method in brief: (§1)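 Following dounce homogenisation of K562 pellets in PBS pH 7.4 with 1 mM MgCl2, crude extract at 1 mg/mL protein was incubated for 30 min with 10 μM compound. Aliquots were then heated for 3 min over 48°C-58°C and pooled, NP-40 was added to 0.5% at 4°C, and soluble protein was recovered as the supernatant at 21,000xg for 90 min. Channel-sum-equalised TMTpro 16plex LC-MS/MS quantified this protein. Each value, from duplicates, is a log-two fold change in thermal stability relative to solvent controls.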

The chains behind the UniProt entries cited, without tags or fusion partners. Where a name states a change or a piece, a line headed by the entry shows the natural chain unless it says otherwise.
UniProt Q9BRT9, whole entry, looked up: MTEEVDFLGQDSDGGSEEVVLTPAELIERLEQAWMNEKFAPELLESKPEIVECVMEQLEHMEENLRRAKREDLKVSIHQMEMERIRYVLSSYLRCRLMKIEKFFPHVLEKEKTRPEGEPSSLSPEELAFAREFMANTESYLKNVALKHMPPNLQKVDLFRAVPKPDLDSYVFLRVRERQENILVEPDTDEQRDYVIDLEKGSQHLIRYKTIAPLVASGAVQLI
UniProt Q92820: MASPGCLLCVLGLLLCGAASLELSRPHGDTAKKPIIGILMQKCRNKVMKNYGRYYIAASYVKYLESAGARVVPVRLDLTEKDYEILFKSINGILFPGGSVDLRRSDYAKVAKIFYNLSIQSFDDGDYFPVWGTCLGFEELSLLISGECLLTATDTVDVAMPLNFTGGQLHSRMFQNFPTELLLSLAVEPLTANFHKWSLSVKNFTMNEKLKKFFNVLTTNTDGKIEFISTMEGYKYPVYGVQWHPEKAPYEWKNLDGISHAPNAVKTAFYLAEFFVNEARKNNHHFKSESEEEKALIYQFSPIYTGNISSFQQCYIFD
UniProt Q9NPR9: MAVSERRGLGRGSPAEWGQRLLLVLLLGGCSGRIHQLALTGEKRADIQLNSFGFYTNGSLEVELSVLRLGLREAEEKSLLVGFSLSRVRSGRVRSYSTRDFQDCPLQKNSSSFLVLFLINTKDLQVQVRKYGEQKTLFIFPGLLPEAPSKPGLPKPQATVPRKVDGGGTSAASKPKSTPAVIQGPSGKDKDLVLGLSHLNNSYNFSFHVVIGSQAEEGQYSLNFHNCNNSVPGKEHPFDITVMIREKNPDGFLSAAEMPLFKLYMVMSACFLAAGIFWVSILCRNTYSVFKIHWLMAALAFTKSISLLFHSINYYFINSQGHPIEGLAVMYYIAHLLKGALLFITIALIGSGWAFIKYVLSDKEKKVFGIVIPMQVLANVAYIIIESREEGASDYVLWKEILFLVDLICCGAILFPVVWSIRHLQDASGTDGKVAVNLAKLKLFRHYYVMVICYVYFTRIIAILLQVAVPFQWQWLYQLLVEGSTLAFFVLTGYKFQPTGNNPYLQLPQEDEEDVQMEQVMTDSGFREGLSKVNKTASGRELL
UniProt Q9UKJ3: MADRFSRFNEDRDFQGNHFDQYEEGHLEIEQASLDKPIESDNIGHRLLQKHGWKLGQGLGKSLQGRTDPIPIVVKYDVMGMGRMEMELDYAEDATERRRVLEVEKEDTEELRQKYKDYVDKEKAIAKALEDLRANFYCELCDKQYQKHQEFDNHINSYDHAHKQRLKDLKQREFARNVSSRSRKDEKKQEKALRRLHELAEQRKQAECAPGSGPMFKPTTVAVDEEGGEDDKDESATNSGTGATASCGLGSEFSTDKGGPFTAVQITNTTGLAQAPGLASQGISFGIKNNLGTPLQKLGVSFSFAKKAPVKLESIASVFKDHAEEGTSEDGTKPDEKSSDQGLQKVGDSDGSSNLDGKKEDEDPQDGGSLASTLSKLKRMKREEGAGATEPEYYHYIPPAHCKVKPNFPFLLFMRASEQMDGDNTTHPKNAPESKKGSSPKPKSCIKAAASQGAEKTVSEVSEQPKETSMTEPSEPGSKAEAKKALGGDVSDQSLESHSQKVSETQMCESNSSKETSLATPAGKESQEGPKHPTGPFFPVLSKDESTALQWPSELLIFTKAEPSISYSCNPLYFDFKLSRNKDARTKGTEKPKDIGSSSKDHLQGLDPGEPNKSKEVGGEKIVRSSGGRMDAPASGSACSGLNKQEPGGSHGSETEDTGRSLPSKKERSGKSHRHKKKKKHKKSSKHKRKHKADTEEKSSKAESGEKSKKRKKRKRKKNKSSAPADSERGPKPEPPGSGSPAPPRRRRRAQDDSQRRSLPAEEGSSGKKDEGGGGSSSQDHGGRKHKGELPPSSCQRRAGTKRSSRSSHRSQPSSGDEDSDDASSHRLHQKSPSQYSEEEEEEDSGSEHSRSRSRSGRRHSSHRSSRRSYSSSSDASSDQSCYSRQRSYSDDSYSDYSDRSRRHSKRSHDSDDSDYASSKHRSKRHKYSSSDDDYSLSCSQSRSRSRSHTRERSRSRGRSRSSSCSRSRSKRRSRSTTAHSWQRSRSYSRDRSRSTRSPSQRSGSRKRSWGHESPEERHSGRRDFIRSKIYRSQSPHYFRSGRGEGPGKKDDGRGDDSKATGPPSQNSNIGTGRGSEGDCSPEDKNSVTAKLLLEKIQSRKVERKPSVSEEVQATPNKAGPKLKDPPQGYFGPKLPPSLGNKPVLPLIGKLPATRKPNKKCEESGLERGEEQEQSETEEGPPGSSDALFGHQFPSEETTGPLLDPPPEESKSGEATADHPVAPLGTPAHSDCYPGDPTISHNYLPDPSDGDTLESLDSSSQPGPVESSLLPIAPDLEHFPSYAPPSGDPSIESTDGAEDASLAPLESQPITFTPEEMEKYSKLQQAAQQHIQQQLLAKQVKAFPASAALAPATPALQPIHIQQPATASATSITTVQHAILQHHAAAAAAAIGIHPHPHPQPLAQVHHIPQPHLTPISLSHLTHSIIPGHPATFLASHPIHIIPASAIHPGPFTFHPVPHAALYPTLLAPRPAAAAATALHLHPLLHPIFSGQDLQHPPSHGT
UniProt P00367: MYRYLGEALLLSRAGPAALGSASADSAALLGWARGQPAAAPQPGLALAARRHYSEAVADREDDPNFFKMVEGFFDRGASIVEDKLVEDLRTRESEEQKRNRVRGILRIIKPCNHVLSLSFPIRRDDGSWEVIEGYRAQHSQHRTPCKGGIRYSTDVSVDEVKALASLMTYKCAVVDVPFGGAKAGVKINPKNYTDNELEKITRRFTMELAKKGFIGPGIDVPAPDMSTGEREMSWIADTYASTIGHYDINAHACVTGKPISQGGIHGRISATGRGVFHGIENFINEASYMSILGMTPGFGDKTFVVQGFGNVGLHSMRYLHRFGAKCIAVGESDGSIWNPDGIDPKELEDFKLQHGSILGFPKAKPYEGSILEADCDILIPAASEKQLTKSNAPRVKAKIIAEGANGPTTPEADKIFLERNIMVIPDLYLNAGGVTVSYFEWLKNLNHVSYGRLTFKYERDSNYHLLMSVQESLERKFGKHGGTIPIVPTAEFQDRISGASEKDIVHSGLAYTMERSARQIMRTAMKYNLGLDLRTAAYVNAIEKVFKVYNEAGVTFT
UniProt P00505: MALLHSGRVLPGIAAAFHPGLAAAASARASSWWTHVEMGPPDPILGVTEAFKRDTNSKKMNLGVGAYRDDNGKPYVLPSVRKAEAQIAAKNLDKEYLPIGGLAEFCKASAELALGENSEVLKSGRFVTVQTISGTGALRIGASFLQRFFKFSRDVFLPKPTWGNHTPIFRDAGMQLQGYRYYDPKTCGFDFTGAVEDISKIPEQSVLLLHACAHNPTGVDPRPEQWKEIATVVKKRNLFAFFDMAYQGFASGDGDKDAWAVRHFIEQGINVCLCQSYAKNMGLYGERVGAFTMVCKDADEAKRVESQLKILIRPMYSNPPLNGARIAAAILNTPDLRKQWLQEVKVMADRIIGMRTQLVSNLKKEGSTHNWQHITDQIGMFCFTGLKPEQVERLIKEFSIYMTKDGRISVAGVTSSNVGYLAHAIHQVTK
UniProt Q9BRR8: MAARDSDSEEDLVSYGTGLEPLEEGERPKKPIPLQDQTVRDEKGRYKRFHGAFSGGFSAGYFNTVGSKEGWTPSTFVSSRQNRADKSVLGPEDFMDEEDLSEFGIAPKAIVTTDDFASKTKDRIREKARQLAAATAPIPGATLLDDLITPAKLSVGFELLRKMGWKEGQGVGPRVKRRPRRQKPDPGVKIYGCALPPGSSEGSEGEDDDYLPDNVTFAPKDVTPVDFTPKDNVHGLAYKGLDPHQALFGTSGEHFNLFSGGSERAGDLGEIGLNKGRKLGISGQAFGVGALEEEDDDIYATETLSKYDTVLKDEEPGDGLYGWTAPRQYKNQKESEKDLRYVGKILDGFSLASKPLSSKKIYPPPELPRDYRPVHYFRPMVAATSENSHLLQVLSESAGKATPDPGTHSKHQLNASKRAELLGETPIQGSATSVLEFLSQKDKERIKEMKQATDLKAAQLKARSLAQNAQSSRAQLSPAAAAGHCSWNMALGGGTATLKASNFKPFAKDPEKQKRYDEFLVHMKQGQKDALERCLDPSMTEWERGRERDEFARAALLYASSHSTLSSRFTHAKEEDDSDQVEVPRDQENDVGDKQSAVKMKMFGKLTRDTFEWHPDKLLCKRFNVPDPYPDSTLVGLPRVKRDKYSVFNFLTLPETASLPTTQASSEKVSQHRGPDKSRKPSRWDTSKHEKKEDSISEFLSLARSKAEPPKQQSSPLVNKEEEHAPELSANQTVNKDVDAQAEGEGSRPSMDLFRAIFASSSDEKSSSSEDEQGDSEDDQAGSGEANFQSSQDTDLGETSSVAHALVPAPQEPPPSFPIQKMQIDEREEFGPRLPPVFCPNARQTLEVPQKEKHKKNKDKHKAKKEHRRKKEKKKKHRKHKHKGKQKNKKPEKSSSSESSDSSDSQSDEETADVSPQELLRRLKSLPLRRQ
UniProt Q08379: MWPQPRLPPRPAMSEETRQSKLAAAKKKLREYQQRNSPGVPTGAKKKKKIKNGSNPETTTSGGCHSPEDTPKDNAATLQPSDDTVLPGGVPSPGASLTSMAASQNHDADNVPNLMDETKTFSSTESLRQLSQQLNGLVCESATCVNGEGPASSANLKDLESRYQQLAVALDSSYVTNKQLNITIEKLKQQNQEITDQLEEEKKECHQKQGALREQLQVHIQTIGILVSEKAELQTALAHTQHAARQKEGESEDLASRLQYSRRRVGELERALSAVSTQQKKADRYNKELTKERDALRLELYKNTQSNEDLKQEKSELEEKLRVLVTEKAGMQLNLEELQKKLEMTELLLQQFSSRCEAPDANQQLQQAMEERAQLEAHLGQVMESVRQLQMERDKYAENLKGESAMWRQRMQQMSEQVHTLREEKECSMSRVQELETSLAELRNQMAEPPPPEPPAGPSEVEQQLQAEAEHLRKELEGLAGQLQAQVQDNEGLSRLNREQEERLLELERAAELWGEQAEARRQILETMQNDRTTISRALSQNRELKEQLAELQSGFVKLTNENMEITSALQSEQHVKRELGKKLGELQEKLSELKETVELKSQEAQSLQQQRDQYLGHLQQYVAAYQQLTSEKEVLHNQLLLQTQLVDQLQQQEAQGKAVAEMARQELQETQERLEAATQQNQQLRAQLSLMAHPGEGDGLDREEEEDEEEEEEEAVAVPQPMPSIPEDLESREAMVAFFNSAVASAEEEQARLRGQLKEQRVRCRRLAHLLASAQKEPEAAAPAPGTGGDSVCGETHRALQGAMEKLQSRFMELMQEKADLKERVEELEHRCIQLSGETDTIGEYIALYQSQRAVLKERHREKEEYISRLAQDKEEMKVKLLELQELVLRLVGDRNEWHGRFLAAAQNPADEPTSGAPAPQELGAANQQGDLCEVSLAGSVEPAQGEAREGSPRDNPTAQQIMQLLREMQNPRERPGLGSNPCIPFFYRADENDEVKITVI
UniProt P49448: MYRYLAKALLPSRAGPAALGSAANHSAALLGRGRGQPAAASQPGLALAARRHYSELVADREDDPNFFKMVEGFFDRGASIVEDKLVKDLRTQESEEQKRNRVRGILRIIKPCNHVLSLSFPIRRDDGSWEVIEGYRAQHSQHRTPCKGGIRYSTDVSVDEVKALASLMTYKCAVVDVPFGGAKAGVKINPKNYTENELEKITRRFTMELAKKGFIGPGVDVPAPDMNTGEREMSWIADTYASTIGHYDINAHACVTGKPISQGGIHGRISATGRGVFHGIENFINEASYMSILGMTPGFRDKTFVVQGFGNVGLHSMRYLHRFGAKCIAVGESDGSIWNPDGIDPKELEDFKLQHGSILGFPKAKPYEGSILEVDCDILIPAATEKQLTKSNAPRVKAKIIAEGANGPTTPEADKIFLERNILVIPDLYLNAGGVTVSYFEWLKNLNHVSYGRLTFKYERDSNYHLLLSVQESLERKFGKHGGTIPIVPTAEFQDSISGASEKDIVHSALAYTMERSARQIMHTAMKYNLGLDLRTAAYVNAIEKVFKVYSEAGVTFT
UniProt Q9Y5P6: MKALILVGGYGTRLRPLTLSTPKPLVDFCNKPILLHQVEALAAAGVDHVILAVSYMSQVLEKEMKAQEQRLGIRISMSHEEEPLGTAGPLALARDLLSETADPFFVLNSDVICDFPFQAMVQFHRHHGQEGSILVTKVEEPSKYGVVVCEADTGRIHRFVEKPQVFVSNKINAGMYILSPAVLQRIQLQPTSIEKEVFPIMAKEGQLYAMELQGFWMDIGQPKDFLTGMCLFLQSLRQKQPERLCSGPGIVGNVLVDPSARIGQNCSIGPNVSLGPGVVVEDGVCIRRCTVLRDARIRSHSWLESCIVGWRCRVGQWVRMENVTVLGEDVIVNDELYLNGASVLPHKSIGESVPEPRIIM

[2] = compound: CS(=O)(=O)N1CCN(Cc2cc3nc(-c4cccc5[nH]ncc45)nc(N4CCOCC4)c3s2)CC1 [pictilisib]
Method in brief: as §1

[3] = compound: C[C@@H](Oc1cc(-c2cnn(C3CCNCC3)c2)cnc1N)c1c(Cl)ccc(F)c1Cl [crizotinib]
Method in brief: as §1

[4] = compound: C[C@H](C1=CC=C(C=C1)C(=O)NC2=C3C=CNC3=NC=C2)N
Method in brief: as §1

[5] = compound: C[C@H](Nc1ncnc2nc[nH]c12)c1cc2cccc(Cl)c2c(=O)n1-c1ccccc1 [duvelisib]
Method in brief: as §1

[6] = compound: Cc1cc(Nc2cc(CN3CCOCC3)c3nc(C)c(Cc4ccc(Cl)cc4F)n3n2)n[nH]1 [gandotinib]
Method in brief: as §1

[7] = compound: Cc1cc(Nc2cc(N3CCN(C)CC3)nc(Sc3ccc(NC(=O)C4CC4)cc3)n2)n[nH]1 [tozasertib]
Method in brief: as §1

[8] = compound: Cc1ccc(-n2nc(C(C)(C)C)cc2NC(=O)Nc2ccc(OCCN3CCOCC3)c3ccccc23)cc1 [doramapimod]
Method in brief: as §1

[9] = compound: Cc1ccc(NC(=O)c2ccc(CN3CC[C@H](N(C)C)C3)c(C(F)(F)F)c2)cc1Nc1nccc(-c2cncnc2)n1 [bafetinib]
Method in brief: as §1

[10] = compound: Cc1cccc(CC(=O)N2CCc3c2ccc(-c2cn(C)c4ncnc(N)c24)c3F)n1
Method in brief: as §1

[11] = compound: Cc1cn(-c2cc(NC(=O)c3ccc(C)c(Nc4nccc(-c5cccnc5)n4)c3)cc(C(F)(F)F)c2)cn1 [nilotinib]
Method in brief: as §1

[12] = compound: Cc1nc(Nc2n[nH]c3c2CN(C(=O)N[C@H](CN(C)C)c2ccccc2)C3(C)C)c2sccc2n1
Method in brief: as §1

[13] = compound: Cc1nc(Nc2ncc(C(=O)Nc3c(C)cccc3Cl)s2)cc(N2CCN(CCO)CC2)n1 [dasatinib]
Method in brief: as §1

[14] = compound: Cc1ncc(-c2ccnc(Nc3ccc(S(C)(=O)=O)cc3)n2)n1C(C)C
Method in brief: as §1

[15] = compound: Cn1cc(-c2ccc3c(c2)CCN3C(=O)Cc2cccc(C(F)(F)F)c2)c2c(N)ncnc21
Method in brief: as §1

[16] = compound: Cn1cc(CNCC2CCN(c3ncc(C(=O)NO)cn3)CC2)c2ccccc21 [quisinostat]
Method in brief: as §1

[17] = compound: Cn1cncc1[C@@](N)(c1ccc(Cl)cc1)c1ccc2c(c1)c(-c1cccc(Cl)c1)cc(=O)n2C [tipifarnib]
Method in brief: as §1

[18] = compound: NC(=O)Nc1cc(-c2cccc(F)c2)sc1C(=O)N[C@H]1CCCNC1
Method in brief: as §1

[19] = compound: NC(=O)c1cnc(N[C@@H]2CCCC[C@@H]2N)nc1Nc1cccc(-n2nccn2)c1
Method in brief: as §1

[20] = compound: NC1(c2ccc(-c3nc4ccn5c(=O)[nH]nc5c4cc3-c3ccccc3)cc2)CCC1
Method in brief: as §1

Measured: log2 fold change

GOLGA6B (UniProt A6NDN3)
inactive: [1] -0.105 | [2] -0.061 | [3] -0.193 | [4] -0.105 | [5] 0.121 | [6] 0.109 | [7] 0.027 | [8] -0.381 | [9] -0.04 | [10] 0 | [11] 0.039 | [12] -0.102 | [13] 0.009 | [14] -0.075 | [15] 0.161 | [16] -0.355 | [17] 0.051 | [18] 0.106 | [19] -0.008 | [20] -0.082

GINS4 (UniProt Q9BRT9)
inactive: [1] 0.016 | [2] -0.041 | [3] 0.03 | [4] 0.008 | [5] -0.014 | [6] -0.03 | [7] -0.018 | [8] 0.016 | [9] 0.014 | [10] -0.005 | [11] -0.019 | [12] -0.009 | [13] 0.01 | [14] -0.007 | [15] 0.015 | [16] -0.004 | [17] -0.014 | [18] 0.012 | [19] 0.001 | [20] -0.035

GGH (UniProt Q92820)
inactive: [1] -0.006 | [2] 0.071 | [3] -0.046 | [4] -0.076 | [5] 0.033 | [6] 0.17 | [7] -0.03 | [8] -0.012 | [9] 0.078 | [10] 0.085 | [11] 0.049 | [12] 0.065 | [13] -0.003 | [14] 0.107 | [15] -0.037 | [16] 0.025 | [17] 0.004 | [18] 0.015 | [19] -0.02 | [20] 0.015

GPI (UniProt P06744)
inactive: [1] -0.017 | [2] 0.022 | [3] 0.032 | [4] 0.003 | [5] 0.004 | [6] -0.013 | [7] -0.007 | [8] 0 | [9] 0.038 | [10] -0.004 | [11] 0 | [12] -0.011 | [13] 0.015 | [14] -0.044 | [15] 0.019 | [16] 0.034 | [17] 0.014 | [18] -0.026 | [19] -0.007 | [20] 0.029

GPR108 (UniProt Q9NPR9)
active: [6] 0.237
inactive: [1] 0.022 | [2] 0.03 | [3] -0.01 | [4] -0.121 | [5] -0.043 | [7] 0.024 | [8] 0.04 | [9] 0.044 | [10] -0.043 | [11] 0.044 | [12] 0.033 | [13] -0.035 | [14] 0.011 | [15] -0.057 | [16] -0.063 | [17] -0.088 | [18] -0.013 | [19] 0.046 | [20] -0.002

GPATCH8 (UniProt Q9UKJ3)
inactive: [1] 0.004 | [2] 0.052 | [3] 0.087 | [4] -0.033 | [5] -0.012 | [6] 0.022 | [7] 0.082 | [8] 0.012 | [9] -0.025 | [10] 0.039 | [11] -0.016 | [12] -0.005 | [13] -0.021 | [14] -0.009 | [15] -0.014 | [16] 0.047 | [17] -0.094 | [18] -0.026 | [19] 0.012 | [20] 0.046

GLUD1 (UniProt P00367)
inactive: [1] 0.007 | [2] 0.142 | [3] -0.021 | [4] -0.03 | [5] -0.029 | [6] 0.079 | [7] 0 | [8] 0.014 | [9] 0.061 | [10] -0.002 | [11] 0.11 | [12] 0.029 | [13] 0.031 | [14] -0.046 | [15] -0.01 | [16] 0.029 | [17] -0.002 | [18] -0.032 | [19] 0.023 | [20] 0.017

GOT2 (UniProt P00505)
inactive: [1] 0.012 | [2] 0.009 | [3] 0.005 | [4] 0.079 | [5] -0.014 | [6] -0.005 | [7] 0.013 | [8] -0.025 | [9] 0.13 | [10] -0.056 | [11] 0.06 | [12] -0.006 | [13] 0.04 | [14] -0.005 | [15] -0.006 | [16] 0.011 | [17] 0.028 | [18] -0.027 | [19] -0.01 | [20] 0.017

GPATCH1 (UniProt Q9BRR8)
inactive: [1] 0.02 | [2] 0.065 | [3] 0.037 | [4] 0.184 | [5] 0.062 | [6] -0.099 | [7] -0.02 | [8] 0.064 | [9] 0.062 | [10] -0.156 | [11] 0.032 | [12] -0.133 | [13] 0.102 | [14] 0.042 | [15] 0.018 | [16] 0.018 | [17] -0.074 | [18] -0.007 | [19] 0.027 | [20] 0.075

GOLGA2 (UniProt Q08379)
inactive: [1] -0.018 | [2] -0.05 | [3] -0.061 | [4] -0.008 | [5] -0.016 | [6] -0.058 | [7] -0.013 | [8] 0.014 | [9] -0.052 | [10] 0.064 | [11] 0.003 | [12] -0.037 | [13] -0.063 | [14] -0.003 | [15] 0.01 | [16] -0.01 | [17] -0.013 | [18] -0.02 | [19] 0.039 | [20] -0.011

GLUD2 (UniProt P49448)
inactive: [1] -0.009 | [2] 0.144 | [3] -0.097 | [4] -0.004 | [5] 0.001 | [6] 0.099 | [7] 0.03 | [8] -0.028 | [9] 0.049 | [10] 0.024 | [11] 0.053 | [12] -0.067 | [13] 0.013 | [14] -0.003 | [15] -0.017 | [16] 0.039 | [17] 0.047 | [18] 0.015 | [19] 0.012 | [20] -0.004

GMPPB isoform 2 (UniProt Q9Y5P6)
inactive: [1] 0.015 | [2] -0.023 | [3] -0.013 | [4] -0.055 | [5] 0.04 | [6] 0.022 | [7] 0.044 | [8] 0.006 | [9] 0.009 | [10] 0.065 | [11] -0.017 | [12] 0.023 | [13] -0.066 | [14] -0.011 | [15] 0.003 | [16] -0.025 | [17] 0.006 | [18] 0.014 | [19] -0.021 | [20] 0.015
